According to paper doi:10.1101/2022.01.28.478199:
Results are given in words; binding and its absence hold for the method and conditions named. Binding seen in cells or lysates may run through a third protein. Binding can be weak; no strength is given.

Chains of the proteins cited; added tags and fusions are not shown. Lines headed by an entry give the natural chain unless they say otherwise; changes in a name come on top.
UniProt P33416: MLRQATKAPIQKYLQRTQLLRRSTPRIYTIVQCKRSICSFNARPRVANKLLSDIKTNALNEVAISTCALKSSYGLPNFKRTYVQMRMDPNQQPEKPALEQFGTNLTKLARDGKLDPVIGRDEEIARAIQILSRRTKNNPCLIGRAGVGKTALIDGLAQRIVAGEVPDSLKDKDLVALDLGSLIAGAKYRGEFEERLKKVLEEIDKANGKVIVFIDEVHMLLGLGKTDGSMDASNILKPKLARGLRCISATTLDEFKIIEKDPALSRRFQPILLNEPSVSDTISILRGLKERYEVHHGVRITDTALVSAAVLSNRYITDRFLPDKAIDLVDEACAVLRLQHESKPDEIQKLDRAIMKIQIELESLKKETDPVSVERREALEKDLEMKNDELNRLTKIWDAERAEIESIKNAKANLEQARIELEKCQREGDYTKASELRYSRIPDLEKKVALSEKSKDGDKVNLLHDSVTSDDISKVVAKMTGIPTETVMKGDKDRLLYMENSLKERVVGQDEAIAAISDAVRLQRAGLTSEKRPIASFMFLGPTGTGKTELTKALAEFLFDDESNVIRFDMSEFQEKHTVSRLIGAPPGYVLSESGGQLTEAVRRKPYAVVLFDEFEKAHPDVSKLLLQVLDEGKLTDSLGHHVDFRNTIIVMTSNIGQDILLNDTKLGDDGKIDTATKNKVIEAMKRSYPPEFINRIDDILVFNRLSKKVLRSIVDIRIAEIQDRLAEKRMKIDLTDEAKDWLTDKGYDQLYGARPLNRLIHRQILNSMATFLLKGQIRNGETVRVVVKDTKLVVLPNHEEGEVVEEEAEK

Molecular target: Hsp78TR-6xHis (Hsp78 E216Q/E614Q Walker B mutant with a C-terminal 6x polyhistidine-tag) (S. cerevisiae) (UniProt P33416)
Test: pull-down

Row | binding | Binder
1 | no binding | Mdh1 (protein, UniProt P17505 18-334) YKVTVLGAGGGIGQPLSLLLKLNHKVTDLRLYDLKGAKGVATDLSHIPTNSVVKGFTPEEPDGLNNALKDTDMVLIPAGVPRKPGMTRDDLFAINASIVRDLAAATAESAPNAAILVISNPVNSTVPIVAQVLKNKGVYNPKKLFGVTTLDSIRAARFISEVENTDPTQERVNVIGGHSGITIIPLISQTNHKLMSDDKRHELIHRIQFGGDEVVKAKNGAGSATLSMAHAGAKFANAVLSGFKGERDVIEPSFVDSPLFKSEGIEFFASPVTLGPDGIEKIHPIGELSSEEEEMLQKCKETLKKNIEKGVNFVASK
2 | binds | Mdj1 (member of the DnaJ co-chaperone family of the mitochondrial Hsp70 system) (protein, UniProt P35191 56-511) NEAFKDPYDTLGLKKSATGAEIKKAYYKLAKKYHPDINKEPDAEKKFHDLQNAYEILSDETKRQQYDQFGPAAFGGGGAAGGAGGGSGSPFGSQFHDFSGFTSAGGSPFGGINFEDLFGAAFGGGGRGSGGASRSSSMFRQYRGDPIEIVHKVSFKDAVFGSKNVQLRFSALDPCSTCSGTGMKPNTHKVSCSTCHGTGTTVHIRGGFQMMSTCPTCNGEGTMKRPQDNCTKCHGEGVQVNRAKTITVDLPHGLQDGDVVRIPGQGSYPDIAVEADLKDSVKLSRGDILVRIRVDKDPNFSIKNKYDIWYDKEIPITTAALGGTVTIPTVEGQKIRIKVAPGTQYNQVISIPNMGVPKTSTIRGDMKVQYKIVVKKPQSLAEKCLWEALADVTNDDMAKKTMQPGTAAGTAINEEILKKQKQEEEKHAKKDDDNTLKRLENFITNTFRKIKGDKKN
